In PMC10313651:
These are yes or no findings as the source states them, for the method shown. Binding seen in cells or lysates may run through a third protein. Some entries that bind do so weakly or less than the wild type.

By UniProt entry, the sequences of proteins in these tests, tags left out.
UniProt O95373: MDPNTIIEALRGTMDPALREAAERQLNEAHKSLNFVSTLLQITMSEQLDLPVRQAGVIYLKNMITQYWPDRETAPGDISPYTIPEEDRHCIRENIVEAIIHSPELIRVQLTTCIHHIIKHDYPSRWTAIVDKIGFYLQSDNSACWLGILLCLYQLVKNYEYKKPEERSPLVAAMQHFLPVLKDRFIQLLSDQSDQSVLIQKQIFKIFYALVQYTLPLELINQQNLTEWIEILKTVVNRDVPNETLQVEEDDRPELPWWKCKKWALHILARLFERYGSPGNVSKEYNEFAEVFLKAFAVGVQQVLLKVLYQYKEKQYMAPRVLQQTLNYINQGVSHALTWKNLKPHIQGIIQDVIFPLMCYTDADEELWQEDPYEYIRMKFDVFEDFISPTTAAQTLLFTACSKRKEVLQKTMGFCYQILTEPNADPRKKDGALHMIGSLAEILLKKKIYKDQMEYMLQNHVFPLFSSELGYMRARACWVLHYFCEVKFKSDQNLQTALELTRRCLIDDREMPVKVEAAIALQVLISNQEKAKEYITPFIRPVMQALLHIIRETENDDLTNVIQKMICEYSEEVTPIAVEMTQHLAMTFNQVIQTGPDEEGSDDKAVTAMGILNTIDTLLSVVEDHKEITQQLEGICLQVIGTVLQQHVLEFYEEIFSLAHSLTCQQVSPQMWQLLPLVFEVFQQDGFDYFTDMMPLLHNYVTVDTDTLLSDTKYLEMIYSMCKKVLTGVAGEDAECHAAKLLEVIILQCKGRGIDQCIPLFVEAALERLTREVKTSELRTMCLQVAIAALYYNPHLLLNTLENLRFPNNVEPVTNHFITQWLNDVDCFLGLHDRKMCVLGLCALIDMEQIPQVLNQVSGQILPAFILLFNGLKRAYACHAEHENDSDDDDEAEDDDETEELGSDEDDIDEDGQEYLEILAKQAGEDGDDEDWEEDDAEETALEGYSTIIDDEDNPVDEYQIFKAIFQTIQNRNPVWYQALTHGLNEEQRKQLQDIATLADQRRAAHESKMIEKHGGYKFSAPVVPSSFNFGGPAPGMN
UniProt P10275: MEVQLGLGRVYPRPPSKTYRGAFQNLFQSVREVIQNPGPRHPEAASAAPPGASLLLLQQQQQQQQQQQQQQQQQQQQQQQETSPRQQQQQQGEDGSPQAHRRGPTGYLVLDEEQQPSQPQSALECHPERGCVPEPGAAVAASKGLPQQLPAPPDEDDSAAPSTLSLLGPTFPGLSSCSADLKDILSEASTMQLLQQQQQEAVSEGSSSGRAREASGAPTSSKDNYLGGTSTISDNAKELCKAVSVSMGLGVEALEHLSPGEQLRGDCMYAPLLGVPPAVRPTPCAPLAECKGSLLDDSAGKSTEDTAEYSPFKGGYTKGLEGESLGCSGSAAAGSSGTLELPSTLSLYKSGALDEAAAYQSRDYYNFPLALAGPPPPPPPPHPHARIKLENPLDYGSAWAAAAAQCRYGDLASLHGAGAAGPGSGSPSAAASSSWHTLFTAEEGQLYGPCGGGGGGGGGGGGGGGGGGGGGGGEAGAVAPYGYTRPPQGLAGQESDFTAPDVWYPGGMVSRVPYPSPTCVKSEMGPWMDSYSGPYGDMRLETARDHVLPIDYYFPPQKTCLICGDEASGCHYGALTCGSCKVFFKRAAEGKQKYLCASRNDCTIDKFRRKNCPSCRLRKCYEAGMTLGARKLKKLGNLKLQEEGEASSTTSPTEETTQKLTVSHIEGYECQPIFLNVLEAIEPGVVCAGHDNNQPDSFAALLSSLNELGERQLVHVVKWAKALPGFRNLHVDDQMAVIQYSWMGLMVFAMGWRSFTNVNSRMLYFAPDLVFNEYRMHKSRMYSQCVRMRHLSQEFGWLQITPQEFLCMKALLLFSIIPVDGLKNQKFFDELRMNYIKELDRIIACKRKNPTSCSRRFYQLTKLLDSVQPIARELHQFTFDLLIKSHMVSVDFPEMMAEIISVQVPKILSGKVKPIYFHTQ

How the values were obtained:
[1] = molecular target: Importin-7 (human (endogenous in MDA-MB-231, MCF-7, MDA-MB-453)) (UniProt O95373); experiment: co-IP; endogenous proteins in lysates of MDA-MB-453 cells; cells androgen-starved (CDS-FBS, 2 d) then enzalutamide (20 uM), DHT (10 nM) or R1881 (10 nM) for 24 h (Fig. 4F), or transfected with Importin-7, USP22 or control siRNAs for 48 h (Fig. 4G, H); immunoblot
[2] = molecular target: Importin-7 (human (endogenous in MDA-MB-231, MCF-7, MDA-MB-453)) (UniProt O95373); experiment: co-IP; endogenous proteins in lysates of MDA-MB-231 and MCF-7 cells; precipitated with Importin-7 antibody (Fig. 4A) or AR antibody (Fig. 4B), immunoblot
[3] = molecular target: androgen receptor (human (endogenous in MDA-MB-231, MCF-7, MDA-MB-453)) (UniProt P10275); experiment: co-IP; endogenous proteins in lysates of MDA-MB-453 cells; cells androgen-starved (CDS-FBS, 2 d) then enzalutamide (20 uM), DHT (10 nM) or R1881 (10 nM) for 24 h (Fig. 4F), or transfected with Importin-7, USP22 or control siRNAs for 48 h (Fig. 4G, H); immunoblot

androgen receptor (from UniProt P10275 1-920)
binding [1]: binds | binding [2]: binds

B1: USP22 (enzyme, UniProt Q9UPT9 1-525)
chain: MVSRPEPEGEAMDAELAVAPPGCSHLGSFKVDNWKQNLRAIYQCFVWSGTAEARKRKAKSCICHVCGVHLNRLHSCLYCVFFGCFTKKHIHEHAKAKRHNLAIDLMYGGIYCFLCQDYIYDKDMEIIAKEEQRKAWKMQGVGEKFSTWEPTKRELELLKHNPKRRKITSNCTIGLRGLINLGNTCFMNCIVQALTHTPLLRDFFLSDRHRCEMQSPSSCLVCEMSSLFQEFYSGHRSPHIPYKLLHLVWTHARHLAGYEQQDAHEFLIAALDVLHRHCKGDDNGKKANNPNHCNCIIDQIFTGGLQSDVTCQVCHGVSTTIDPFWDISLDLPGSSTPFWPLSPGSEGNVVNGESHVSGTTTLTDCLRRFTRPEHLGSSAKIKCSGCHSYQESTKQLTMKKLPIVACFHLKRFEHSAKLRRKITTYVSFPLELDMTPFMASSKESRMNGQYQQPTDSLNNDNKYSLFAVVNHQGTLESGHYTSFIRQHKDQWFKCDDAIITKASIKDVLDSEGYLLFYHKQFLEYE
binding [3]: binds | binding [2]: binds
